Measured values taken from patent US20150125450A1 (published 2015).
Results are given in words; binding and its absence hold for the method and conditions named. Some results given as binding are weak or reduced against the parent protein; the word gives no strength.

Protein sequences, listed by entry. Tags and fused reporters are not part of them. Residues count along the entry.
UniProt P51742, residues 77-233: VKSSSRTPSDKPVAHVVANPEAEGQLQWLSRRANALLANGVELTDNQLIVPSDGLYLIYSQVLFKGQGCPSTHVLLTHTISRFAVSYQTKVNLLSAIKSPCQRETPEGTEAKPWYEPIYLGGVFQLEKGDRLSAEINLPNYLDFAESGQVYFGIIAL
UniProt P01375, residues 77-233: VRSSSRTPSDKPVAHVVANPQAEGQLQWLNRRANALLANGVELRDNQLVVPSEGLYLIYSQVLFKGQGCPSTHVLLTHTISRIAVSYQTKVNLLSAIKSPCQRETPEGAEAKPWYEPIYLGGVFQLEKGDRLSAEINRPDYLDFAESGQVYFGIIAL

Columns and labels:
canine TNF-α (canine) = canine TNF-α (canine) (UniProt P51742); test: ELISA
human TNF-α = human TNF-α (human, UniProt P01375 77-233); test: ELISA

B1: chimeric 4C9 antibody (chimeric anti-TNF-α clone 6A9) (antibody, V domains shown)
VH: VQLQESGPSLVKPSQTLSLTCSVTGDSITSGFWNWIRKFPGNKFEYMGYISYSGRTYYNPSLKSRLSITRDTSKNQFYLQLNSVTAEDTATYYCARDANYVLDYWGQGTTLTVSS
VL: DIQLTQSPSSLAMSVGQKVTMNCKSSQSLLNSSTQKNYLAWFQQKPGQSPKLLVYFASARESGVPDRFIGSGSGTDFTLTISSVQAEDLADYFCQQHYRTPFTFGSGTKLEIKR
notes: also called cIgG-anti-TNF-α
binding (canine TNF-α (canine)): binds
binding (human TNF-α): binds
